Measurements reported in PubChem BioAssay AID686938 (Drosophila RNAi Screening Center, 2013)
Test: 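Fly genes required for calcium entry once internal stores are emptied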 (primary screen). System: Drosophila S2R+ cells. Knock-down reagent: long dsRNA against Drosophila genes, about 0.25 µg dsRNA per well, roughly 10,000 cells. Time to read-out: 5 days of knock-down before the calcium assay. Conditions: thapsigargin (SERCA pump blocker) to empty calcium stores; entry signal taken 4 min after adding it. Read-out: 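Per-well fluo-4 fluorescence in two replicates, unnormalised, measured in resting cells and 4 min after store depletion by the SERCA blocker thapsigargin; ratio of the two present in few wells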. Direction: calcium entry signal: higher = stronger calcium signal after store depletion; resting calcium signal: higher = higher resting calcium signal. Units: calcium entry signal in fluorescence units; resting calcium signal in fluorescence units. Active means: 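Called when the plate z-score of the entry-to-rest ratio, mean of duplicates, falls below −3; wells with low overall dye signal (Fmax z below −2) or more than five off-targets excluded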. Calls: active = strongly reduced calcium entry; inactive = no strong reduction.
The deposit covers about 23,000 reagents; shown is a random part of those that have a named target and a result. Over the whole deposit, 75 (0.33%) were called active. 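Raw plate signals without normalisation; calls rest on plate z-scores that were not deposited; ratio present for only 364 wells.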 Entries without a mark were called inactive. The numbers tell different reagents against one gene apart. Reagent sequences are not shown. Not stated in the record: the dose of the treatment.

Against Spp (Signal peptide peptidase), the entry reads calcium entry signal, replicate 1 = 4.23e7; resting calcium signal, replicate 1 = 2.33e7.
For CG13245 the deposit lists calcium entry signal, replicate 1 = 4.26e7; resting calcium signal, replicate 1 = 2.16e7.
Silencing of nesd (nessun dorma) came out at: calcium entry signal, replicate 1 = 4.47e7; resting calcium signal, replicate 1 = 2.19e7.
Silencing of Trf4 (TBP-related factor 4) gave: calcium entry signal, replicate 1 = 3.95e7; calcium entry signal, replicate 2 = 3.79e7; resting calcium signal, replicate 1 = 1.82e7; resting calcium signal, replicate 2 = 1.67e7.
Depletion of CG4645 came out at: calcium entry signal, replicate 1 = 3.60e7; calcium entry signal, replicate 2 = 3.79e7; resting calcium signal, replicate 1 = 1.79e7; resting calcium signal, replicate 2 = 1.77e7.
With knock-down of CG12012, the screen gave calcium entry signal, replicate 1 = 2.85e7; calcium entry signal, replicate 2 = 3.78e7; resting calcium signal, replicate 1 = 1.44e7; resting calcium signal, replicate 2 = 1.69e7.
Silencing of CG30479 came out at: calcium entry signal, replicate 1 = 2.70e7; calcium entry signal, replicate 2 = 4.50e7; resting calcium signal, replicate 1 = 1.40e7; resting calcium signal, replicate 2 = 1.79e7.
With knock-down of hebe #1, the record shows calcium entry signal, replicate 1 = 2.85e7; calcium entry signal, replicate 2 = 6.83e7; resting calcium signal, replicate 1 = 1.47e7; resting calcium signal, replicate 2 = 2.90e7.
Silencing of hebe #2 gave: calcium entry signal, replicate 1 = 4.54e7; calcium entry signal, replicate 2 = 3.70e7; resting calcium signal, replicate 1 = 2.02e7; resting calcium signal, replicate 2 = 1.72e7.
hebe #3 showed calcium entry signal, replicate 1 = 2.88e7; calcium entry signal, replicate 2 = 4.08e7; resting calcium signal, replicate 1 = 1.39e7; resting calcium signal, replicate 2 = 1.69e7.
Depletion of Obp83cd (Odorant-binding protein 83cd) came out at: calcium entry signal, replicate 1 = 4.87e7; calcium entry signal, replicate 2 = 4.01e7; resting calcium signal, replicate 1 = 2.28e7; resting calcium signal, replicate 2 = 1.91e7.
VhaAC45 (Vacuolar H[+] ATPase AC45 accessory subunit) showed calcium entry signal, replicate 1 = 2.54e7; calcium entry signal, replicate 2 = 2.07e7; resting calcium signal, replicate 1 = 1.50e7; resting calcium signal, replicate 2 = 1.37e7.

No new results follow: 2 of the entries above.
hebe #2 | calcium entry signal, replicate 1 = 4.54e7; calcium entry signal, replicate 2 = 3.70e7; resting calcium signal, replicate 1 = 2.02e7; resting calcium signal, replicate 2 = 1.72e7
hebe #3 | calcium entry signal, replicate 1 = 2.88e7; calcium entry signal, replicate 2 = 4.08e7; resting calcium signal, replicate 1 = 1.39e7; resting calcium signal, replicate 2 = 1.69e7
